The supplement of paper PMC3682954
Where a name gives a salt, the structure may show the parent alone. ± gives the standard deviation of the averaged measurements. The list shows a part of the results. Single values are uncertain, as repeats are few or missing.

Test system: RAW 264.7
Test: cell viability (MTT) relative to vehicle control; higher = more viable cells
Settings: stimulus: HMGB1 5 ug/ml, 18 h
[1] = compound concentration: 1 ug/ml

SMILES	cell viability (compound concentration: 3 uM) [%]	cell viability [1] [%]
NS(=O)(=O)C#Cc1ccccc1 [Pifithrin-mu]	107	–
C[C@@H]1O[C@@H](O[C@H]2[C@H](Oc3cc(O)c4c(c3)O[C@H](c3ccc(O)cc3)CC4=O)O[C@H](CO)[C@@H](O)[C@@H]2O)[C@H](O)[C@H](O)[C@H]1O [Naringin]	–	102
CC(=O)OCC(=O)[C@@]12OC3(CCCC3)O[C@@H]1C[C@H]1[C@@H]3CCC4=CC(=O)C=C[C@]4(C)[C@@]3(F)[C@@H](O)C[C@@]12C	109	–
CC(=O)OCC(=O)[C@@]12OC3(CCCC3)O[C@@H]1C[C@H]1[C@@H]3CCC4=CC(=O)C=C[C@]4(C)[C@@]3(F)[C@@H](O)C[C@@]12C [Amcinonide]	102	–
N=C(N=C(N)N)N1CCOCC1 [Moroxidine hydrochloride]	103	–
CN1[C@@H]2CC[C@H]1C[C@@H](OC(c1ccccc1)c1ccccc1)C2	113	–
CN1[C@@H]2CC[C@H]1C[C@@H](OC(c1ccccc1)c1ccccc1)C2 [Benztropine mesylate]	102 ± 12	–
CC(=O)Nc1ccc(OCC(O)CNC(C)C)cc1 (configuration not stated) [Practolol]	95.2 ± 15	–
CCCC(=O)Nc1ccc(OCC(O)CNC(C)C)c(C(C)=O)c1 (configuration not stated)	105	–
CCCC(=O)Nc1ccc(OCC(O)CNC(C)C)c(C(C)=O)c1 (configuration not stated) [Acebutolol hydrochloride]	100	–
C[C@@H]1O[C@@H](OC[C@H]2O[C@@H](Oc3c(-c4ccc(O)c(O)c4)oc4cc(O)cc(O)c4c3=O)[C@H](O)[C@@H](O)[C@@H]2O)[C@H](O)[C@H](O)[C@H]1O	97.4	–
C[C@@H]1O[C@@H](OC[C@H]2O[C@@H](Oc3c(-c4ccc(O)c(O)c4)oc4cc(O)cc(O)c4c3=O)[C@H](O)[C@@H](O)[C@@H]2O)[C@H](O)[C@H](O)[C@H]1O [Rutin]	–	99.5
C[C@@H]1O[C@@H](OC[C@H]2O[C@@H](Oc3c(-c4ccc(O)c(O)c4)oc4cc(O)cc(O)c4c3=O)[C@H](O)[C@@H](O)[C@@H]2O)[C@H](O)[C@H](O)[C@H]1O [RUTOSIDE (rutin)]	111	–
C[C@@H]1O[C@@H](OC[C@H]2O[C@@H](Oc3c(-c4ccc(O)c(O)c4)oc4cc(O)cc(O)c4c3=O)[C@H](O)[C@@H](O)[C@@H]2O)[C@H](O)[C@H](O)[C@H]1O [Rutine]	–	86.9
CC#CCC(C)[C@H](O)/C=C/[C@@H]1[C@H]2C/C(=C/CCCC(=O)O)C[C@H]2C[C@H]1O (some centres not stated) [Iloprost]	112	–
CCN(CC)CC1CCCCN1CC(=O)N1c2ccccc2C(=O)Nc2cccnc21 (configuration not stated)	97.6	–
CC1(C)C(=O)N(CCN2CCC(C(=O)c3ccc(F)cc3)CC2)c2ccccc21 [LY-310,762 hydrochloride]	99.7	–
